These are yes or no findings as the source states them, for the method shown. Binding seen in cells or lysates may run through a third protein. Some results given as binding are weak or reduced against the parent protein; the word gives no strength.
Legend:
[1] = target: T1, Sentrin/SUMO-specific protease 1 (human (endogenous in H1299)) (UniProt Q9P0U3); assay: co-IP; whole cell lysate (1 mg, RIPA buffer) of HIF-1α-overexpressing H1299 cells without chloramphenicol; capture antibody against HIF-1α or SENP-1 (1 μg/mL) overnight at 4 °C, protein A magnetic beads, immunoblot
T1 sequence: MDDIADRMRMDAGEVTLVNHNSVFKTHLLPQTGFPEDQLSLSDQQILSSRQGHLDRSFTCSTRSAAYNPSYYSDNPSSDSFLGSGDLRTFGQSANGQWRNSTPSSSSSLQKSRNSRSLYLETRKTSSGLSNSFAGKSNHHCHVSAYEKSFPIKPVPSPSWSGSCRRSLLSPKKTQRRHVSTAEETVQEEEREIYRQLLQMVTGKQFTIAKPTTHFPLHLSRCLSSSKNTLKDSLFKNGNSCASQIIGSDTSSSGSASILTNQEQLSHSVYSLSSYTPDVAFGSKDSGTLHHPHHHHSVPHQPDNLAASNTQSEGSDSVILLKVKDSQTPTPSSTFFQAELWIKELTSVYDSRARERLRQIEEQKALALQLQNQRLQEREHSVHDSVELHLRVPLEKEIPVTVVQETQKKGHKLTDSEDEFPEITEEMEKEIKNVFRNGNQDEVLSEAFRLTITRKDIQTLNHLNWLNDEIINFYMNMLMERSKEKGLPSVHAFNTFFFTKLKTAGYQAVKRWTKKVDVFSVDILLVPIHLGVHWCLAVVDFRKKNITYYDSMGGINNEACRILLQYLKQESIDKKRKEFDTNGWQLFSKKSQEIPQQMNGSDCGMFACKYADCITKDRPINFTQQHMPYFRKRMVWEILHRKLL

Protein sequences, listed by entry. Tags and fused reporters are not part of them.
UniProt Q16665: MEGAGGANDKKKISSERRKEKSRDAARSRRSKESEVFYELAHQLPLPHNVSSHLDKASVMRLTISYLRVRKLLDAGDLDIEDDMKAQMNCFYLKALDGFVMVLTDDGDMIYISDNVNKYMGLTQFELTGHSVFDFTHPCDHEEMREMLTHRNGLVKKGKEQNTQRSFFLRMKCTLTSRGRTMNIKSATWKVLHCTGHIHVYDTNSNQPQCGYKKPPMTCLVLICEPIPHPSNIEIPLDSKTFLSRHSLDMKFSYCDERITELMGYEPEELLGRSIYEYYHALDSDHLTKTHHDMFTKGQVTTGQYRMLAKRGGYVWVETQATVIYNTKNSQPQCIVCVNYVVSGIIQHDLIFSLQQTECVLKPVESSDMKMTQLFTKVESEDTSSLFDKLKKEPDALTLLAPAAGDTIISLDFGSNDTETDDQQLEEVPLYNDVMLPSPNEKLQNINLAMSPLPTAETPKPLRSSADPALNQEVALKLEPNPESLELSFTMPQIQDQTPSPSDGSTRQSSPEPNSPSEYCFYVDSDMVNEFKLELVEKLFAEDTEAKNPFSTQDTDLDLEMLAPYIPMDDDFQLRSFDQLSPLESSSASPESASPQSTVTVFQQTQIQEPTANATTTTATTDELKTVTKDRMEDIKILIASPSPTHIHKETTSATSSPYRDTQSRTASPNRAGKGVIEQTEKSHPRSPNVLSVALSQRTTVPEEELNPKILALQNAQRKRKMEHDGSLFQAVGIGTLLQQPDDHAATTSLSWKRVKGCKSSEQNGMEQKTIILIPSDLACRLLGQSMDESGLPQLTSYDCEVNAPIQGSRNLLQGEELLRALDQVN

[2] = target: T1, Sentrin/SUMO-specific protease 1 (human (endogenous in H1299)); assay: condition: only cells treated with chloramphenicol and bafilomycin A1; co-IP; HIF-1α-overexpressing H1299 cells co-incubated with chloramphenicol and bafilomycin A1 before lysis; capture with anti-HIF-1α or anti-SENP-1, immunoblot (Figure 6C)

For “hypoxia inducible factor-1 alpha (from UniProt Q16665 1-826)”, the binding [1] was “binds” and the binding [2] was “no binding”.
